Test results from article PMC3724824.
No constants are given. Whether binding was seen depends on the method and setting. Binding calls can cover weak binding; strength is not graded here.

Chains of the proteins cited; added tags and fusions are not shown. Lines headed by an entry give the natural chain unless they say otherwise; changes in a name come on top.
UniProt Q8VRL7: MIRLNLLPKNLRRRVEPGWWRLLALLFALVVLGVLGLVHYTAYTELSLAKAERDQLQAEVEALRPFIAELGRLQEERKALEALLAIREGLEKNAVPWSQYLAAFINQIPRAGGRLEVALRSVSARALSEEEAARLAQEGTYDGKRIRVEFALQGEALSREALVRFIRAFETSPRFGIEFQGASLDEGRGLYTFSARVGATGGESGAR
UniProt Q8VRL6: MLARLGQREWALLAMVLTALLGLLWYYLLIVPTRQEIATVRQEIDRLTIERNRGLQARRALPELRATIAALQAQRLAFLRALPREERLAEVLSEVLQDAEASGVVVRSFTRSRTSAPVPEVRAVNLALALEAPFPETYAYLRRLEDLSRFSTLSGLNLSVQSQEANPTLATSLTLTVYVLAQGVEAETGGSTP

Experiments:
[1] = target: T. thermophilus PilN (C-terminus immediately after the predicted TM helix) (T. thermophilus) (UniProt Q8VRL7); experiment: two-hybrid; Y2H by co-transformation of pGAD and pGBD fusions into AH109; serial dilutions on SD-His and SD-Ade, and β-galactosidase activity (ONPG)
[2] = target: T. thermophilus PilW (C-terminus immediately after the predicted TM helix) (T. thermophilus) (UniProt Q8VRL5); experiment: as above

T. thermophilus PilO (C-terminus immediately after the predicted TM helix) (from UniProt Q8VRL6) (domain or fragment)
binding [1]: binds | binding [2]: binds
